These are yes or no findings as the source states them, for the method shown. Some entries that bind do so weakly or less than the wild type. Blank lines part the entries; values can stand above or below the binder they belong to.
Key:
[1] = biological target: platelet GPIIIa (integrin beta3) on platelets (human) (UniProt P05106); experiment: ELISA on coated platelets, anti-His tag detection
[2] = biological target: partially digested fibrin (human) (UniProt P02671+P02675+P02679); experiment: ELISA on partially plasmin-digested fibrin, 500 nM protein, anti-His tag detection
[3] = biological target: T1, mouse platelet GPIIIa on wild type mouse platelets (mouse) (UniProt O54890); experiment: ELISA, coated wild type against GPIIIa-/- mouse platelets, anti-His tag detection
T1 sequence (looked up): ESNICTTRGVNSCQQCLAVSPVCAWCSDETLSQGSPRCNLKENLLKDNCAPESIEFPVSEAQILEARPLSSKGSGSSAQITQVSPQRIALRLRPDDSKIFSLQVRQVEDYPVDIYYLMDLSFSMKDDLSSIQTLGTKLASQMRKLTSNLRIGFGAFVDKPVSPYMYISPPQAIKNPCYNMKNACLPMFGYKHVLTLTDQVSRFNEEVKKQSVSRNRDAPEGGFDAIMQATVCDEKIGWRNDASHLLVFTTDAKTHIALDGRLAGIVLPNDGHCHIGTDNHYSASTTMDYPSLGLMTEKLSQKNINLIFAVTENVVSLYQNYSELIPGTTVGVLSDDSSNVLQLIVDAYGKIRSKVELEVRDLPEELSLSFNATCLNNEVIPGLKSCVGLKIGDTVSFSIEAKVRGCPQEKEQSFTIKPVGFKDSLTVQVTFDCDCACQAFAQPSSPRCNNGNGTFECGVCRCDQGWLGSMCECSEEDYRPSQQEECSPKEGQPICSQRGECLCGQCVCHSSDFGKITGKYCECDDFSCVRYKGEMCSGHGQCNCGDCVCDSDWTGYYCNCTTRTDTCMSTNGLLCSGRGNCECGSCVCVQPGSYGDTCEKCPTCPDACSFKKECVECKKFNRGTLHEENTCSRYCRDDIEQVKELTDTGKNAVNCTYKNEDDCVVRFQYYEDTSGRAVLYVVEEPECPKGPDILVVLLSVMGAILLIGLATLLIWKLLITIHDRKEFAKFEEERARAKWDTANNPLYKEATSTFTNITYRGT

Protein sequences, listed by entry. Tags and fused reporters are not part of them. Lines headed by an entry give the natural chain unless they say otherwise; changes in a name come on top. Residues count along the entry.
UniProt P05106, residues 27-788: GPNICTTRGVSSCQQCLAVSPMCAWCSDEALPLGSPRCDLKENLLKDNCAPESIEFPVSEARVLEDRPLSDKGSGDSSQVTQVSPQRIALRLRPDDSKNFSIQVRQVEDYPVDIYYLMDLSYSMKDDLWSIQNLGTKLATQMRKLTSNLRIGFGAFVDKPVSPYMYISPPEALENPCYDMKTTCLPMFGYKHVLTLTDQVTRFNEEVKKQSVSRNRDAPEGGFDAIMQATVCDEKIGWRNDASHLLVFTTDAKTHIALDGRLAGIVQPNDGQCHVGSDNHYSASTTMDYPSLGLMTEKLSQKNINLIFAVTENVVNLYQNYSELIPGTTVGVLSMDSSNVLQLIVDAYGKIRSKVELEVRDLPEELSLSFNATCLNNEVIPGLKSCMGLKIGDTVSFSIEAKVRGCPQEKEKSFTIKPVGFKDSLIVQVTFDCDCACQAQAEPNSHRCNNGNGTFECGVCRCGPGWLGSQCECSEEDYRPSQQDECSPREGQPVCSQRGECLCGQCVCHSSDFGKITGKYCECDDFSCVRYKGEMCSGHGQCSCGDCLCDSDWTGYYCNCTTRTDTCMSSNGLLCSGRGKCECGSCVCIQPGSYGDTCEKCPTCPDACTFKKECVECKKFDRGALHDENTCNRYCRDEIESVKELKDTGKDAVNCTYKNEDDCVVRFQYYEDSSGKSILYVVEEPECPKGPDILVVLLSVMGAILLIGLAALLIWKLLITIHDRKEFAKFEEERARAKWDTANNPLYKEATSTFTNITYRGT
UniProt P02671: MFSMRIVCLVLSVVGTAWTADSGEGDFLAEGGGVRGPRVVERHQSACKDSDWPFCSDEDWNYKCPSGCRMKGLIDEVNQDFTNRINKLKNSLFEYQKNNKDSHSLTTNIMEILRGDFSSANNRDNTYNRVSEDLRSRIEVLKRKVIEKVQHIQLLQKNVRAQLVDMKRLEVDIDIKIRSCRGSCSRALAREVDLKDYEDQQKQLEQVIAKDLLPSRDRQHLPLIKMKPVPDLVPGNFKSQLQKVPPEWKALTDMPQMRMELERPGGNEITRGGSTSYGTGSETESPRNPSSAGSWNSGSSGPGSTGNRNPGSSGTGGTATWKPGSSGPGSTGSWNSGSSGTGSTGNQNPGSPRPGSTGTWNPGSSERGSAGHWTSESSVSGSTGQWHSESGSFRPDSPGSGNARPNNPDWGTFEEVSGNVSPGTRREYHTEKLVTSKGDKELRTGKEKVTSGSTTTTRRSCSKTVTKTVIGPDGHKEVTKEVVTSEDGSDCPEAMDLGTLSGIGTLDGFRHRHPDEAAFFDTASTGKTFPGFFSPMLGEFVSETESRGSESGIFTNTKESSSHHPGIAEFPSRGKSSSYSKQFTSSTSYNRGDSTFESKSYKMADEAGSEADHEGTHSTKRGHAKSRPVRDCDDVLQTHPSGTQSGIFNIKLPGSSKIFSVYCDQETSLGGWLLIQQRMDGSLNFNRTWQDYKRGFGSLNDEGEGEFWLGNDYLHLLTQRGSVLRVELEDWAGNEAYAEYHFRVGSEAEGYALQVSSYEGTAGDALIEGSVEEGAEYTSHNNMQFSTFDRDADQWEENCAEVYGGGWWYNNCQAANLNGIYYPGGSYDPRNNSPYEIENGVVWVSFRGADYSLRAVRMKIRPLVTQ
UniProt P02675: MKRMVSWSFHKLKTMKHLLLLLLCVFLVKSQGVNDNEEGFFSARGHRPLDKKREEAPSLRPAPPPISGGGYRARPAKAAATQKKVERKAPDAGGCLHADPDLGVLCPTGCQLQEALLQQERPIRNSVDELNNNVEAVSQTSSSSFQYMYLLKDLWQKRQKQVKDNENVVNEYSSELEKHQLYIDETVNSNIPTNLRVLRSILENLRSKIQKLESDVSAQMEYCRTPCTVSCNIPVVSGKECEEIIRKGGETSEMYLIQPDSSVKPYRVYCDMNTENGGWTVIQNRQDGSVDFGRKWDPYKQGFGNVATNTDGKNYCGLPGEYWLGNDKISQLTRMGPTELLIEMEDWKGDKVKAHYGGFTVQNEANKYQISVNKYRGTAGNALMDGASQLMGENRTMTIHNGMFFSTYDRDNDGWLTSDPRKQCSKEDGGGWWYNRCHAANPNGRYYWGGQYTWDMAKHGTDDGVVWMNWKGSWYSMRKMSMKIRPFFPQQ
UniProt P02679: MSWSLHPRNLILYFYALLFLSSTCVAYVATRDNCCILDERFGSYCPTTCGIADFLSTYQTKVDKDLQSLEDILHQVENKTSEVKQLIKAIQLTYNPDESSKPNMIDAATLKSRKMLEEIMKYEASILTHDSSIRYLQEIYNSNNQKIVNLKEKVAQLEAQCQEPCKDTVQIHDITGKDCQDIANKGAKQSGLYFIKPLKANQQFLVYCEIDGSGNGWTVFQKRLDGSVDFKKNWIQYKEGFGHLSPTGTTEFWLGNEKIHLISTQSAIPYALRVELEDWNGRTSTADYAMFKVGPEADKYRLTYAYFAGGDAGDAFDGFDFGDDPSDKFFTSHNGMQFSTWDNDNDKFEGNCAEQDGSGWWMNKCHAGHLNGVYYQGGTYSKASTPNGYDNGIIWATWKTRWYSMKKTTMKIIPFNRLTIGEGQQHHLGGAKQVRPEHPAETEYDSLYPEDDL

[4] = biological target: T2, GPIIIa(49-66) peptide (human); experiment: ELISA, coated peptide, anti-His tag detection
T2 sequence (peptide): CAPESIEFPVSEARVLED

binding [1]: binds | binding [2]: binds
B1: scFv-A11-linker-kringle-1 (SLK) (protein, not shown: small tags and cut ends)
chain: MAEVQLLESGGGLVQPGGSLRLSCAASGFTFSSYAMSWVRQAPGKGLEWVSSITSTGMETRYADSVKGRFTISRDNSKNTLYLQMNSLRAEDTAVYYCAKGKSHFDYWGQGTLVTVSSGGGGSGGGGSGGGGSTDIQMTQSPSSLSASVGDRVTITCRASQSISSYLNWYQQKPGKAPKLLIYTASFLQSGVPSRFSGSGSGTDFTLTISSLQPEDFATYYCQQRKSYPRTFGQGTKVEIKRGSTSGGSTSGGSTSGSGSGICKTGNGKNYRGTMSKTKNGITCQKWSSTSPHRPRFSPATHPSEGLEENYCRNPDNDPQGPWCYTTDPEKRYDYCDILE

binding [1]: binds | binding [3]: binds | binding [4]: binds
B2: scFv-A11 (scFv, not shown: small tags and cut ends)
scFv: MAEVQLLESGGGLVQPGGSLRLSCAASGFTFSSYAMSWVRQAPGKGLEWVSSITSTGMETRYADSVKGRFTISRDNSKNTLYLQMNSIRAEDTAVYYCAKGKSHFDYWGQGTLVTVSSSGGGGSGGGGSGGGGTDIQMTQSPSSISASVGDRVTITCRASQSISSYLNWYQQKPGKAPKLLIYTASFLQSGVPSRFSGSGSGTDFTLTISSLQPEDFATYYCQQRKSYPRTFGQGTKVEIKR
